Among the data in JP2006523083A are binding values, retold here.

In this experiment the target is T1, ビオチン化EpoR(Abbott CHO細胞由来 ref.#RB69084:4) (UniProt P19235).
T1 sequence (biotinylated with biotin-NHS (sites not stated), looked up): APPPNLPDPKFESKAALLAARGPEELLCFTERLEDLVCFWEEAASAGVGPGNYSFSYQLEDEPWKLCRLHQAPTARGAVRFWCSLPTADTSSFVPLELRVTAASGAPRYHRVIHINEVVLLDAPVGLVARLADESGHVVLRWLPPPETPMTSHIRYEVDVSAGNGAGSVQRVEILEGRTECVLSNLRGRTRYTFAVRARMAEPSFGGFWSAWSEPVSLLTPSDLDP
Nature of the experiment: ELISA, biotin-EpoR on streptavidin plate, HEK293 supernatant, anti-human IgG Fc-HRP.

These are yes or no findings as the source states them, for the method shown. Some results given as binding are weak or reduced against the parent protein; the word gives no strength.

B1: Ab12 (antibody, V domains shown)
VH: QVQLQESGPGLVKPSETLSLTCTVSGASISSYYWSWIRQPPGKGLEWIGYIYYSGSTNYNPSLKSRVTISVDTSKNQFSLKLRSVTAADTAVYYCARERLGIGDYWGQGTLVTVSS
VL: DIQLTQSPSSLSASVGDRVTITCRASQGIRNDLGWYQQKPGKAPKRLIYAASSLQSGVPSRFSGSGSGTEFTLTISSLQPEDFATYYCLQHNTYPPTFGQGTKVEIK
Consider B1, for which the binding result is “binds”.

B2: Ab198 (antibody, V domains shown)
VH: QVQLVESGGGVVQPGRSLRLSCVASGFTFSSYGMHWVRQAPGKGLEWVAVISYDGSNKYYADSVKGRFTISRDNSKNTLYLQMNSLRVEDTAVYYCARDHGGRYVYDYGMDVWGQGTTVTVSS
VL: DIQMTQSPSSVSASIGDRVSITCRASQGISSWLAWYQQKPGKAPTLLIYAASTLQRGVPSRFSGSGSGTDFTLTISSLQPEDFATYFCQQANSFPFTFGPGTKVDIK
Turning to B2, the binding entry is recorded as “binds”.
